Patent US20160050930A1, “METHODS OF CONTROLLING NEONICOTINOID RESISTANT PESTS” (SYNGENTA PARTICIPATIONS AG, priority 2013, published 2016)
Some entries share one result that the patent states for a list of compounds.

Experiments:
[1] = system: FRC-P strain of Myzus persicae (Neonicotinoid resistant); test: Control of neonicotinoid resistant green peach aphid (Myzus persicae), spray bioassays on pea seedlings / Chinese cabbage discs; assay type: in vivo; conditions: for control of the FRC-P (Neonicotinoid resistant) strain of Myzus persicae: 200 ppm; for resistance factor (RF80): concentration for set mortality (i.e. 80%) in FRC-P resistant strain divided by that in susceptible Myzus persicae strain
[2] = system: Q-biotype strain of Bemisia tabaci (Neonicotinoid resistant); test: Control of neonicotinoid resistant tobacco whitefly (Bemisia tabaci), spray bioassays on cotton seedlings / cotton leaf discs; assay type: in vivo; conditions: for control of the Q-biotype (Neonicotinoid resistant) strain of Bemisia tabaci: 200 ppm; for resistance factor: concentration for set mortality (i.e. 80%) in Q-biotype resistant strain divided by that in susceptible Bemisia tabaci strain

Structure (SMILES)	control of the FRC-P (Neonicotinoid resistant) strain of Myzus persicae [1]	resistance factor (RF80) [1]	control of the Q-biotype (Neonicotinoid resistant) strain of Bemisia tabaci [2]	resistance factor [2]
N#CC1(c2cncc(Br)c2)CC2CCC(C1)N2C=O (centres unmarked) [Compound 2.073]	at least 80%	≤ 20	at least 80%	≤ 20
N#CC1(c2cncc(Br)c2)CC2CCC(C1)N2CC(F)(F)C(F)(F)C(F)(F)F (centres unmarked) [Compound 2.194]	at least 80%	≤ 20	at least 80%	≤ 20
CN1C2CCC1CC(C#N)(c1cncc(F)c1)C2 (centres unmarked) [Compound 3.223]	at least 80%	≤ 20	at least 80%	≤ 20
CC#CCN1C2C=CC1CC(C#N)(c1cncc(Cl)c1)C2 (centres unmarked) [Compound 4.020]	at least 80%	≤ 20	at least 80%	≤ 20
C#CCN1C2C=CC1CC(C#N)(c1cncc(Cl)c1)C2 (centres unmarked) [Compound 4.042]	at least 80%	≤ 20	at least 80%	≤ 20
COCCN1C2C=CC1CC(C#N)(c1cncc(Br)c1)C2 (centres unmarked) [Compound 5.018]	at least 80%	≤ 20	at least 80%	≤ 20
N#CC1(c2cncc(Br)c2)CC2C=CC(C1)N2C1CSC1 (centres unmarked) [Compound 5.031]	at least 80%	≤ 20	at least 80%	≤ 20
N#CC1(c2cncc(Br)c2)CC2C=CC(C1)N2CCCC(F)(F)F (centres unmarked) [Compound 5.050]	at least 80%	≤ 20	at least 80%	≤ 20
C=CCN1C2C=CC1CC(C#N)(c1cncc(Br)c1)C2 (centres unmarked) [Compound 5.082]	at least 80%	≤ 20	at least 80%	≤ 20
N#CC1(c2cncc(Br)c2)CC2C=CC(C1)N2C1CCC1 (centres unmarked) [Compound 5.320]	at least 80%	≤ 20	at least 80%	≤ 20
CN1C2CCC1CC(C#N)(c1cncc(I)c1)C2 (centres unmarked) [Compound 7.223]	at least 80%	≤ 20	at least 80%	≤ 20
